Laboratory results published in publication PMC8830441, “Interaction of TLK1 and AKTIP as a Potential Regulator of AKT Activation in Castration-Resistant Prostate Cancer Progression” (Pathophysiology, 2021).
These are yes or no findings as the source states them, for the method shown. Binding seen in cells or lysates may run through a third protein. Binding can be weak; no strength is given.

Target: T1, endogenous AKTIP (human (endogenous in HEK 293 and LNCaP)) (UniProt Q9H8T0)
T1 sequence: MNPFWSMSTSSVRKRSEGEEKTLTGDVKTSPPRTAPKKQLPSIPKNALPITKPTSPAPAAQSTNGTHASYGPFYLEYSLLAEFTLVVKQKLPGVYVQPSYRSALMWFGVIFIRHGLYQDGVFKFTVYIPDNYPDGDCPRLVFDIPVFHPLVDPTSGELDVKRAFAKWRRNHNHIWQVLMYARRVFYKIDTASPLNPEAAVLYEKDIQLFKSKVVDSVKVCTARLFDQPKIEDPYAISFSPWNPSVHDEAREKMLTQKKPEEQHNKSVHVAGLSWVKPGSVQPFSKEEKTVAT
Assay: co-IP; LNCaP cell extracts with or without THD treatment, precipitated with AKTIP specific antibody, protein A/G agarose beads, immunoblotting of AKT and AKTIP

With “endogenous AKT (human (endogenous in LNCaP)) (enzyme)” the binding was “binds”.
